Data published in the supplement of paper PMC10849652.
Some of the results follow.

The chains behind the UniProt entries cited, without tags or fusion partners. Where a name states a change or a piece, a line headed by the entry shows the natural chain unless it says otherwise.
UniProt Q9BQ24: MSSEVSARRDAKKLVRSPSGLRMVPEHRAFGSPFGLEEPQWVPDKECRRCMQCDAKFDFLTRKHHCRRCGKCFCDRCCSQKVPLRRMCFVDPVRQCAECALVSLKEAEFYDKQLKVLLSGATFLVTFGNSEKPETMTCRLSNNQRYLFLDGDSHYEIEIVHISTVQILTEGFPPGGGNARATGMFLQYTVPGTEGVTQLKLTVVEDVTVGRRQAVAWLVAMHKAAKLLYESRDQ
UniProt Q969W1: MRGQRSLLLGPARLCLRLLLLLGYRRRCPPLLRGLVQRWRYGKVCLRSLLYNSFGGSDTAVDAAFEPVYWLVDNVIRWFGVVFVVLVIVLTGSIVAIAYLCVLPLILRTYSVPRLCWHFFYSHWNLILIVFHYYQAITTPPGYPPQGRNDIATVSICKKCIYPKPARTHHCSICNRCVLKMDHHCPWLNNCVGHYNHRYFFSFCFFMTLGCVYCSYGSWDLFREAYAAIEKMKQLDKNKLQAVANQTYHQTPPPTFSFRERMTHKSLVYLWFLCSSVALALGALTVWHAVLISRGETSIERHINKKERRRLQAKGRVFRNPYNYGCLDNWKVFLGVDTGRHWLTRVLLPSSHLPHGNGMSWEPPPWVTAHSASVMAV
UniProt A4UGR9: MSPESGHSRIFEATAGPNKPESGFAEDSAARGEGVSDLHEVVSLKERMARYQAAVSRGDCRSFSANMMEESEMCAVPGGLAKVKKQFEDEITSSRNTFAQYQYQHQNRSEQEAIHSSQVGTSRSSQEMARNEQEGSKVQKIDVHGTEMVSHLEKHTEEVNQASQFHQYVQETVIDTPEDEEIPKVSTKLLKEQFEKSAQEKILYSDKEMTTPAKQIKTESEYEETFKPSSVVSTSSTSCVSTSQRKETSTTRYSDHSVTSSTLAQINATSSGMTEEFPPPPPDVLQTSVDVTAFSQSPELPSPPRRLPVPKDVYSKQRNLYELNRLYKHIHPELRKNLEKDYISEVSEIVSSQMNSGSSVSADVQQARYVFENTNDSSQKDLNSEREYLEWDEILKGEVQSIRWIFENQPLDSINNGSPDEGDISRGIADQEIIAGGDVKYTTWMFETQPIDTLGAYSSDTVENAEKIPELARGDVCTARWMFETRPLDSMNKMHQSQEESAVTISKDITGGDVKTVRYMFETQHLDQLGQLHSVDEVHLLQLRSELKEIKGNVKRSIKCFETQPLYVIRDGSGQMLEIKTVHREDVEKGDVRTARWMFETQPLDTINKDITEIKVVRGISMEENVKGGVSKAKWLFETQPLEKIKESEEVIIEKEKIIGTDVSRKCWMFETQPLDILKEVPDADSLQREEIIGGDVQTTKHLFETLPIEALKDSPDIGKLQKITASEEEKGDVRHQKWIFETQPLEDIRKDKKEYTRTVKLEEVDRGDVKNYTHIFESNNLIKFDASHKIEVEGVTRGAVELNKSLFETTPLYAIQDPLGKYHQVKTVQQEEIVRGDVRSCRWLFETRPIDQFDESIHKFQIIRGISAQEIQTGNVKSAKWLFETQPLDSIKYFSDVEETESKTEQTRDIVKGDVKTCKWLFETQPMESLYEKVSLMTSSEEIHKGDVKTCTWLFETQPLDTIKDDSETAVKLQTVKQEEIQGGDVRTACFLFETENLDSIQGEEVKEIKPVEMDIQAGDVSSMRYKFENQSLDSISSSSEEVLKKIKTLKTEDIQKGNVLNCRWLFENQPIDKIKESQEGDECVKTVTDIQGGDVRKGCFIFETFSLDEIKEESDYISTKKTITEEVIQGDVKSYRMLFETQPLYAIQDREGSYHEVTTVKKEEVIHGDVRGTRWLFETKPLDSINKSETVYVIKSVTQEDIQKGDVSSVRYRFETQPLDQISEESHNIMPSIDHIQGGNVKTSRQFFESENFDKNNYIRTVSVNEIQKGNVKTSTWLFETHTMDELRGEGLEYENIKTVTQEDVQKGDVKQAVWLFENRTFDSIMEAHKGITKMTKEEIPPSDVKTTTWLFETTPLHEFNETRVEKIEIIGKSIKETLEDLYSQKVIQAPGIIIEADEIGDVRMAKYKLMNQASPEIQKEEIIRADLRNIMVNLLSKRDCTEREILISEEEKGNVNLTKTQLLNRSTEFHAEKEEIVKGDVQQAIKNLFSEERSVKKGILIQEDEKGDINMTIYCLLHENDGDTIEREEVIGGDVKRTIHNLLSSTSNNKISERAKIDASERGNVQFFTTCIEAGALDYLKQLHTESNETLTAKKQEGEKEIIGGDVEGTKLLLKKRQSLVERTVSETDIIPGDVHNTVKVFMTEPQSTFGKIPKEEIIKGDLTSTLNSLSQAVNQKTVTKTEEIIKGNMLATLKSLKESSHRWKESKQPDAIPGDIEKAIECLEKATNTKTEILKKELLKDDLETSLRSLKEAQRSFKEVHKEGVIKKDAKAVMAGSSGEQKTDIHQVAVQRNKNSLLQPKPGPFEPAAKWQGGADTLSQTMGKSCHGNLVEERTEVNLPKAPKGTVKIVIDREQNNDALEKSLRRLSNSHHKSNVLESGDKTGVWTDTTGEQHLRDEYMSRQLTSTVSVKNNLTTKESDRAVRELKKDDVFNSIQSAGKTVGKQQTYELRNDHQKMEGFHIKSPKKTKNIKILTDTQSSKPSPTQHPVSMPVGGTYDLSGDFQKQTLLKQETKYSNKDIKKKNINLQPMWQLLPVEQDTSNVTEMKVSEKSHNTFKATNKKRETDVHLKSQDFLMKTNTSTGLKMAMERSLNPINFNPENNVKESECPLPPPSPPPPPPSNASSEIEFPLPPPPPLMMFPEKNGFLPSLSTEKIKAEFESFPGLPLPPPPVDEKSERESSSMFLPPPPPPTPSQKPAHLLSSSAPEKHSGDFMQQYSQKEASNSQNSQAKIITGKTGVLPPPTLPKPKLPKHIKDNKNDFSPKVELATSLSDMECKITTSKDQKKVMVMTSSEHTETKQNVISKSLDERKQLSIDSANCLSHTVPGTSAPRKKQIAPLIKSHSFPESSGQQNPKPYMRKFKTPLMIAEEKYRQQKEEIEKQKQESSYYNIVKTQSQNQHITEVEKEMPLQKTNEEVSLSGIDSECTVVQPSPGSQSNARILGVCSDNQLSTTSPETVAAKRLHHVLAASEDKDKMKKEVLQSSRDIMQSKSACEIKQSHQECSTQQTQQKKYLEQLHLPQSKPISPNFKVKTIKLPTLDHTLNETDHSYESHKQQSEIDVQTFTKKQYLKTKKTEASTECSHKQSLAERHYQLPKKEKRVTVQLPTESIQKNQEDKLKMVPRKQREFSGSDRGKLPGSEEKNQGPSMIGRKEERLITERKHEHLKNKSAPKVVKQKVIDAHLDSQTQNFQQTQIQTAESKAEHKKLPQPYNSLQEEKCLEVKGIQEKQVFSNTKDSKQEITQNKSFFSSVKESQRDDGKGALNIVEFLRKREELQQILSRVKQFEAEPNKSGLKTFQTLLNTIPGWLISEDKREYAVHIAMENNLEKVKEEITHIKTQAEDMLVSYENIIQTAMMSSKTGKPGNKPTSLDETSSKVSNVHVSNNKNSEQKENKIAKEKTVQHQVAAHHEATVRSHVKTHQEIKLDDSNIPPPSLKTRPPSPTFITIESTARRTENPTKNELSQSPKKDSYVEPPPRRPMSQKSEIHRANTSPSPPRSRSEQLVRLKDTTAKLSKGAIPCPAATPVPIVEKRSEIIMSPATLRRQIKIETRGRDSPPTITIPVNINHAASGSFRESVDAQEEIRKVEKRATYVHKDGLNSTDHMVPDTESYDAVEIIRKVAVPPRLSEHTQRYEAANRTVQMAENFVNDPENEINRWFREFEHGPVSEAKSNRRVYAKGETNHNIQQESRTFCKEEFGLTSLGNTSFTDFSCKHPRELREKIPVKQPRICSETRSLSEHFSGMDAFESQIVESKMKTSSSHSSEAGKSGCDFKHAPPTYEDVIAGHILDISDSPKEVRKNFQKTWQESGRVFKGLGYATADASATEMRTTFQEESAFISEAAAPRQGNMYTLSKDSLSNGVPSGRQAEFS
UniProt P17010: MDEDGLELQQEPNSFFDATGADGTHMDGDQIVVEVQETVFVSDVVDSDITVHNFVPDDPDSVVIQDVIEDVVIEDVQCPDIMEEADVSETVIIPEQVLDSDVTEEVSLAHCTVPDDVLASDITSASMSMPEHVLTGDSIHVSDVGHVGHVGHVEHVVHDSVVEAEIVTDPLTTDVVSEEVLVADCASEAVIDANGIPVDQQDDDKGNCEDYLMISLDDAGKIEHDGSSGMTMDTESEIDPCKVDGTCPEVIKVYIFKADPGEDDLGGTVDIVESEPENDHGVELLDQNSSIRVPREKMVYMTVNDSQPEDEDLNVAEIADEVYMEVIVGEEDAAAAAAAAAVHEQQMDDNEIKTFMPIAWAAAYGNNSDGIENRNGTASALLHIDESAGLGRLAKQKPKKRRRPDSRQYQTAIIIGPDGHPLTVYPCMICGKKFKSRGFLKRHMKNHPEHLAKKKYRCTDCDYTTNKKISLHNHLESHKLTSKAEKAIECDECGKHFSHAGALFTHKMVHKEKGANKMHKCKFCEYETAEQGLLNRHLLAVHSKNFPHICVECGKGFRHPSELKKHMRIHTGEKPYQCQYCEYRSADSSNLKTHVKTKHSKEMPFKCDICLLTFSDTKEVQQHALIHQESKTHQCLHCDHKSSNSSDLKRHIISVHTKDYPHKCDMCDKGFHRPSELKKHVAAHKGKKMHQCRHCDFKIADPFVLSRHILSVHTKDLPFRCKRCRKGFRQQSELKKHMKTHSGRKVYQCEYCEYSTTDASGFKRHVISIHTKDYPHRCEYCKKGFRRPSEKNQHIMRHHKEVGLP
UniProt Q9BRR0: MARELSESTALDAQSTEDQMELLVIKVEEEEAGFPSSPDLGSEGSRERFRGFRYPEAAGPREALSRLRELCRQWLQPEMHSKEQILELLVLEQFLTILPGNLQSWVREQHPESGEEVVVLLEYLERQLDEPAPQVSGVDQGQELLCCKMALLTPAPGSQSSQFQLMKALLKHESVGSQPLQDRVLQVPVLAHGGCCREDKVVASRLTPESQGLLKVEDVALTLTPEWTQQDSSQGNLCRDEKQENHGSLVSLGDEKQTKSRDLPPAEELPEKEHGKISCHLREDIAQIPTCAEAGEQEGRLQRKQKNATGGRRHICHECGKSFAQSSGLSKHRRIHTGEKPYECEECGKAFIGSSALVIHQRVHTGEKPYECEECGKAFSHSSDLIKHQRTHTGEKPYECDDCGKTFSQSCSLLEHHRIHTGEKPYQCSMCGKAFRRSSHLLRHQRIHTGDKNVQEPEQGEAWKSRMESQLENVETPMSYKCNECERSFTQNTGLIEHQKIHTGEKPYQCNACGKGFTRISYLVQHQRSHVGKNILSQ
UniProt Q8TCF1: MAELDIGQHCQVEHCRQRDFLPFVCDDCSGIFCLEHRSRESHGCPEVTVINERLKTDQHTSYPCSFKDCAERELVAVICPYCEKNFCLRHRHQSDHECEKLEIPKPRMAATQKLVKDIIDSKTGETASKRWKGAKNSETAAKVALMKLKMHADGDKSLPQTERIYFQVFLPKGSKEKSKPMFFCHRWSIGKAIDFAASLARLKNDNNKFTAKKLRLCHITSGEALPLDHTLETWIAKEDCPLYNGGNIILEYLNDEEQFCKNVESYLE
UniProt Q13105: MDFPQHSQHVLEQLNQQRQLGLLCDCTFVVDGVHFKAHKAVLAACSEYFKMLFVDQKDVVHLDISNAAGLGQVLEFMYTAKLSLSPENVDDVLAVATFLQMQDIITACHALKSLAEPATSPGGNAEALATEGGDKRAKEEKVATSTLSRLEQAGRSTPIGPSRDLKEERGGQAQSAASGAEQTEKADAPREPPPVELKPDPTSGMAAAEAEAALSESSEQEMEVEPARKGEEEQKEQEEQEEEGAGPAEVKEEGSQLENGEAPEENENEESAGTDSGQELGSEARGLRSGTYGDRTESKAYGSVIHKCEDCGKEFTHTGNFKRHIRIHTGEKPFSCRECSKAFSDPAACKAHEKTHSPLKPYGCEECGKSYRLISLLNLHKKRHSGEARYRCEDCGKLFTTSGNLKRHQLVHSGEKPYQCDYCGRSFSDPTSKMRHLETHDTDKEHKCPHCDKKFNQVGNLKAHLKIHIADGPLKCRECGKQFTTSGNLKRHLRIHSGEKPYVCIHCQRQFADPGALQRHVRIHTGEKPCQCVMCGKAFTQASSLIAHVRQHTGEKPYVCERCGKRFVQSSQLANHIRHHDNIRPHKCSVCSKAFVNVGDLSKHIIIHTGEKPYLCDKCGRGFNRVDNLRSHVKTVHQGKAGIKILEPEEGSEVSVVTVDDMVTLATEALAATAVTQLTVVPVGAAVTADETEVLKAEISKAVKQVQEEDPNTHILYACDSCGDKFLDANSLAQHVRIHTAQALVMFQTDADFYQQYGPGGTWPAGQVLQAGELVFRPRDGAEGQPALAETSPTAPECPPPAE
UniProt Q96DA0: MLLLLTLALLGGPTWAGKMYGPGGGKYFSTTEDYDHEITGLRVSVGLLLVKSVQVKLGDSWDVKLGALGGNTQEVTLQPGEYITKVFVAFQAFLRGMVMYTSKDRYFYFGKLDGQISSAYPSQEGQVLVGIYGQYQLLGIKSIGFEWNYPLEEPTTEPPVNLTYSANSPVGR

Tests used:
Assay in all cases: log2 fold change, soluble protein after heating vs DMSO (PISA); higher = thermal stabilisation; K562 cells, 10 uM, 30 min; active = over 0.2 and 3.5 SD of the protein, either way, in both replicates (recomputed)
[1] = compound: C1=CC=C(C=C1)[C@H](COC2=CC3=C(C=C2)NC(=O)N3)NC(=O)C4=CC=CN(C4=O)CC5=CC(=C(C=C5)F)F
In short: (§1)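 Aliquots of K562 cells (2×10^6 cells/mL) treated with 10 μM compound for 30 min were heated for 3 min over 48°C-58°C. After pooling and extraction in PBS with 0.5% NP-40 at 4°C, soluble protein from a 21,000xg, 90 min spin was quantified by TMTpro 16plex LC-MS/MS with channel sums equalised. Thermal stability is expressed against control samples, from duplicates, as a log2 fold change.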

[2] = compound: CC1=C(SC2=C1C(=N[C@H](C3=NN=C(N32)C)CC(=O)N)C4=CC=C(C=C4)Cl)C
In short: as §1

[3] = compound: CC1=C2C(=CC=C1)N=C(N(C2=O)C3=CC=CC=C3C)CN4C=NC5=C(N=CN=C54)N
In short: as §1

[4] = compound: Cc1sc2c(c1C)C(c1ccc(Cl)cc1)=N[C@@H](CC(=O)OC(C)(C)C)c1nnc(C)n1-2
In short: as §1

[5] = compound: c1ccc([C@@H]2C[C@H]2NC2CCNCC2)cc1
In short: as §1

| Target | log2 fold change [1] | log2 fold change [2] | log2 fold change [3] | log2 fold change [4] | log2 fold change [5] |
| --- | --- | --- | --- | --- | --- |
| YWHAB (UniProt P31946) | inactive: -0.024 | inactive: 0.024 | inactive: -0.01 | inactive: -0.004 | inactive: -0.03 |
| XK (UniProt P51811) | inactive: -0.025 | inactive: 0.159 | inactive: -0.105 | – | inactive: -0.071 |
| XPO4 (UniProt Q9C0E2) | inactive: -0.003 | inactive: 0.056 | inactive: 0.025 | inactive: 0.007 | inactive: 0.006 |
| XPC (UniProt Q01831) | – | inactive: -0.44 | inactive: -0.082 | – | inactive: -0.154 |
| ZDHHC12 isoform 3 (UniProt Q96GR4) | – | – | inactive: -0.035 | inactive: 0.066 | – |
| ZFPM2 (UniProt Q8WW38) | – | inactive: 0.224 | – | inactive: -0.099 | inactive: 0.232 |
| ZFYVE21 isoform 2 (UniProt Q9BQ24) | – | – | inactive: 0.302 | inactive: 0.029 | – |
| ZDHHC4 (UniProt Q9NPG8) | inactive: -0.041 | – | inactive: 0.025 | – | – |
| ZKSCAN4 (UniProt Q969J2) | – | inactive: -0.068 | inactive: -0.122 | inactive: 0.176 | inactive: 0.101 |
| ZDHHC16 (UniProt Q969W1) | – | – | inactive: 0.029 | – | – |
| XRCC2 (UniProt O43543) | – | inactive: 0.211 | – | – | inactive: -0.144 |
| ZKSCAN8 (UniProt Q15776) | – | – | inactive: 0.111 | inactive: 0.097 | – |
| ZCCHC17 (UniProt Q9NP64) | – | – | inactive: -0.124 | – | – |
| ZDHHC7 isoform 2 (UniProt Q9NXF8) | – | inactive: 0.088 | inactive: 0.131 | inactive: 0.135 | inactive: 0.081 |
| ZDHHC8 isoform 3 (UniProt Q9ULC8) | inactive: 0.105 | – | – | inactive: 0 | – |
| ZFYVE26 (UniProt Q68DK2) | – | inactive: 0.052 | – | – | inactive: -0.026 |
| ZNF22 (UniProt P17026) | – | inactive: -0.423 | – | inactive: -0.168 | inactive: 0.06 |
| XIRP2 isoform 8 (UniProt A4UGR9) | inactive: -0.03 | inactive: -0.098 | – | inactive: 0.032 | inactive: -0.01 |
| ZBTB7B isoform 2 (UniProt O15156) | – | – | inactive: -0.001 | inactive: 0.105 | – |
| ZNF106 (UniProt Q9H2Y7) | inactive: -0.098 | – | inactive: 0.122 | – | – |

2 records drawn at random from the list so far:

| Target | log2 fold change [1] | log2 fold change [2] | log2 fold change [3] | log2 fold change [4] | log2 fold change [5] |
| --- | --- | --- | --- | --- | --- |
| XK (UniProt P51811) | inactive: -0.025 | inactive: 0.159 | inactive: -0.105 | – | inactive: -0.071 |
| ZDHHC16 (UniProt Q969W1) | – | – | inactive: 0.029 | – | – |

Next records:

| Target | log2 fold change [1] | log2 fold change [2] | log2 fold change [3] | log2 fold change [4] | log2 fold change [5] |
| --- | --- | --- | --- | --- | --- |
| ZBTB14 (UniProt O43829) | inactive: 0.28 | inactive: -0.187 | – | inactive: -0.123 | inactive: 0.013 |
| ZBTB24 (UniProt O43167) | – | inactive: -0.302 | – | inactive: 0.065 | inactive: -0.027 |
| ZFX isoform 3 (UniProt P17010) | – | – | inactive: -0.545 | inactive: 0.175 | – |
| ZDHHC13 (UniProt Q8IUH4) | – | inactive: 0.079 | – | – | inactive: -0.112 |
| ZDHHC18 (UniProt Q9NUE0) | inactive: -0.074 | inactive: 0.097 | – | inactive: -0.209 | inactive: -0.006 |
| ZKSCAN3 (UniProt Q9BRR0) | – | inactive: 0.075 | – | – | inactive: 0.082 |
| ZEB2 (UniProt O60315) | inactive: -0.125 | – | inactive: 0.137 | inactive: 0.368 | – |
| ZFAND1 (UniProt Q8TCF1) | inactive: -0.244 | – | inactive: -0.085 | inactive: -0.171 | – |
| XPA (UniProt P23025) | – | – | inactive: 0.071 | inactive: 0.115 | – |
| ZBTB17 isoform 2 (UniProt Q13105) | inactive: -0.08 | – | – | inactive: -0.019 | – |
| ZFHX4 isoform 5 (UniProt Q86UP3) | – | – | – | inactive: 0.018 | – |
| ZMYND8 isoform 19 (UniProt Q9ULU4) | inactive: -0.048 | inactive: -0.003 | – | – | inactive: 0.044 |
| YWHAZ (UniProt E7ESK7) | inactive: 0.066 | inactive: 0.009 | – | inactive: 0.083 | inactive: 0.052 |
| XYLT2 (UniProt Q9H1B5) | – | inactive: 0.435 | – | – | inactive: -0.197 |
| ZC3H7B (UniProt Q9UGR2) | – | inactive: -0.035 | – | inactive: 0.429 | inactive: 0.139 |
| ZBTB7A (UniProt O95365) | inactive: 0.06 | inactive: -0.187 | – | inactive: 0.189 | inactive: 0.078 |
| ZG16B (UniProt Q96DA0) | inactive: 0.206 | – | inactive: 0.041 | – | – |
| XP32 (UniProt Q5T750) | inactive: 0.28 | inactive: -0.058 | – | – | inactive: 0.224 |
| ZBTB10 (UniProt Q96DT7) | inactive: 0.017 | inactive: -0.048 | – | inactive: 0.361 | inactive: 0.035 |
| XRCC1 (UniProt P18887) | – | inactive: 0.091 | – | inactive: 0.07 | inactive: 0.062 |
